In the experiment the target is T1, UAP1L1 (UniProt Q3KQV9).
T1 sequence (whole entry): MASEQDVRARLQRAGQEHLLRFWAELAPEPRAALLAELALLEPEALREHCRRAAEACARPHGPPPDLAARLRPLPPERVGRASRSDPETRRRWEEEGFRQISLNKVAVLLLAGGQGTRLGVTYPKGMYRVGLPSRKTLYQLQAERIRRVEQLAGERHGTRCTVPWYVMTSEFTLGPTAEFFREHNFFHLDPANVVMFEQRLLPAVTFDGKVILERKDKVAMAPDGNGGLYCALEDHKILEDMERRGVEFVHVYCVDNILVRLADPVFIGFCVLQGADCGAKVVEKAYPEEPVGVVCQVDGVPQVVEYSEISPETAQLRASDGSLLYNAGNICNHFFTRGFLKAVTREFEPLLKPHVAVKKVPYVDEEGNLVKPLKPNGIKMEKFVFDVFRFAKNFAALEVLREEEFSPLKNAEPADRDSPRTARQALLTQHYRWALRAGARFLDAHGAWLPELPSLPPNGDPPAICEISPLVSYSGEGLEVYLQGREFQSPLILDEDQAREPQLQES
As to the kind of experiment: NP40-soluble protein abundance relative to vehicle (solubility fold change) (ratio); higher = more soluble protein in presence of GTP. As to the method: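 Solubility proteome profiling in Jurkat crude lysate. Lysate was treated with Mg-GTP (0.1-10 mM) for 10 min at room temperature and 3 min at 37 °C, then solubilised with 0.8% NP40 and benzonase, followed by ultracentrifugation. Proteins were quantified by TMT10 LC-MS/MS; the value is the NP40-soluble abundance relative to the NP40-processed vehicle, from 3 independent experiments.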

SMILES strings stand for the structures. ± gives the standard deviation of the averaged measurements. This is one part of the list.

For `Nc1nc2c(ncn2[C@@H]2O[C@H](COP(=O)(O)OP(=O)(O)OP(=O)(O)O)[C@@H](O)[C@H]2O)c(=O)[nH]1` [guanosine triphosphate], the NP40-soluble protein abundance turned out to be 1.06 ± 0.054 (concentration: 0.1mM); 1 ± 0.073 (concentration: 0.5mM); 0.962 ± 0.07 (concentration: 1mM); 0.918 ± 0.14 (concentration: 2mM); 0.984 ± 0.18 (concentration: 4mM); 0.88 ± 0.099 (concentration: 6mM). Further, the NP40-soluble protein abundance by setting is: (concentration: 8mM) 0.856 ± 0.12; (concentration: 10mM) 0.857 ± 0.18.
